Test results published in patent publication US20250340655A1, “EPHA2-TARGETING ANTIBODIES AND THEIR APPLICATIONS IN CANCER TREATMENT” (TAIPEI MEDICAL UNIVERSITY, priority 2022, published 2025).
These are yes or no findings as the source states them, for the method shown. Some binding calls cover weakened binding; strength is not graded here.

Amino acid sequences for entries named in this document (tags omitted). Residues count along the entry.
UniProt P29317, residues 24-976: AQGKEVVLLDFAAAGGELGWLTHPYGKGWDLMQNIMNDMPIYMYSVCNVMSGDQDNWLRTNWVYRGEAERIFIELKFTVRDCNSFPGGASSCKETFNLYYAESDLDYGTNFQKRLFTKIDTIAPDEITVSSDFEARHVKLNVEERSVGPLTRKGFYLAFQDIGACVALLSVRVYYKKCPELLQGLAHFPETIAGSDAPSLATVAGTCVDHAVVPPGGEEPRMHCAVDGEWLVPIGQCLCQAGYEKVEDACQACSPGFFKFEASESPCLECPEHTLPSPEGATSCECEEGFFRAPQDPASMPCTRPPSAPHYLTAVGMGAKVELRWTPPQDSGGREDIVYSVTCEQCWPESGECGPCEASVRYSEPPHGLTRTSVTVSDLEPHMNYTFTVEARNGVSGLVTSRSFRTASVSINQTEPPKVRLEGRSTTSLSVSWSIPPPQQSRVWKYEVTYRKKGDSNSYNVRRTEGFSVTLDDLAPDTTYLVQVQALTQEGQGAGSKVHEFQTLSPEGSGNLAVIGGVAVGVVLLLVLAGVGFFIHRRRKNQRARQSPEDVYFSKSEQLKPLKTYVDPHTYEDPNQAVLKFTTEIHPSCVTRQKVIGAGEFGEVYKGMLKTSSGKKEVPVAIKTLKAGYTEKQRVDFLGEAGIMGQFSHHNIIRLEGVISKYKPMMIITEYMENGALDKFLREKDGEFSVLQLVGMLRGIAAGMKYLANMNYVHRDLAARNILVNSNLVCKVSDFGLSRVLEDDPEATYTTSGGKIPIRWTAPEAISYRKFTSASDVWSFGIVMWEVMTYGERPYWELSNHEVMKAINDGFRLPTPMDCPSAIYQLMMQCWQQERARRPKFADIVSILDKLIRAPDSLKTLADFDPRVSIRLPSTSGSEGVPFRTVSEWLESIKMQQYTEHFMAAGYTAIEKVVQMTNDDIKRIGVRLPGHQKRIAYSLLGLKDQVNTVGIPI

Legend:
[1] = target: EphA2 overexpressed on 293T cells (UniProt P29317); experiment: flow cytometry on 293T cells overexpressing EphA1-A8
[2] = target: EphA2 overexpressed on 293T cells (UniProt P29317); experiment: flow cytometry on 293T cells overexpressing EphA1-A8 (FIG. 6A, told again)

B1: Humanized scFv hSD5 (scFv)
scFv: LTQPPSVSVSPGQTVRITCSGSSGSYGWYQQKSPGQAPVTLIYDNDKRPSGIPERFSGSSSGSTSTLTISGVQAEDEADYYCGSADSSTYVGMFGGGTKLTVLGQSSRSSQVQLVESGGGLVQPGGSLRLSCAASGFTFSDYGMGWVRQAPGKGLEWVAGISAAGSFTPYGAAVKGRFTISRDNSKNTVYLQMNSLRAEDTAVYYCARIPSGYRAGEIYTWGQGTLVTVSS
notes: also called hSD5 scFv; Humanized scFv hSDS
For B1, the binding [1] was “binds” and the binding [2] was “binds”.
